Measured values from publication PMC10609061, “Detection of Various Traditional Chinese Medicinal Metabolites as Angiotensin-Converting Enzyme Inhibitors: Molecular Docking, Activity Testing, and Surface Plasmon Resonance Approaches” (Molecules, 2023).

Test system: ACE1 (angiotensin-converting enzyme)
Assay: ACE inhibition measurement with ACE1 activity test kit (fluorescence)
Conditions: TCM metabolite at 25 uM

O=c1cc(-c2ccc(O)c(O)c2)oc2cc(O)c([C@@H]3O[C@H](CO)[C@@H](O)[C@H](O)[C@H]3O)c(O)c12 [Homoorientin]
Inhibition rate (%) of ACE1 activity, relative to captopril taken as 100%: more than 20% and 28.7%

For part of its entries the source gives two or more results. They are shown here; other results are not. There may be further records. Results that share an entry do not match, cause unknown; dose, time, organism, isomer or construct need not be as stated for each record.
